Some of these results come from one statement about several compounds together.
Test system: NDM-1 Kp
Test: LD90 NDM-1 Kp pneumonia murine model, survival
Format: in vivo, Balb/c mice
Conditions: for increased survival compared to untreated NDM-1 Kp-infected mice: i.n. monotherapy, 50 or 500 pg, 1 d and/or 3 d PI; for increased survival of Kp-infected mice (LD90): individually administered, depending on timing (1 h and/or 3 d PI), route (i.n. and/or i.p.), dose (50 and/or 500 pg)
Text: To establish the optimal CST route, timing, and dosage regimen against MDR NDM-1 Kp-induced pneumonia, Balb/c mice (n=10-20 mice/gp) were infected with an i.n. LD90 and treated at various times and doses as depicted in Table 1. Doses included i.n. and/or i.p. single rCST9, rCSTC or a combination of rCST9 and rCSTC. Mice that were infected with NDM-1 Kp but were not treated served as controls. rCST treatments by routes, doses, or as a combined therapy were studied to select an optimal regimen.
Evaluate optimal timing and dosage of rCST-9 and/or PEG-rCST9 administration post-infection. Balb/c mice (n=10-20 mice/gp) were intranasally (i.n.) infected with approximately 1.82×10^8 CFU/mouse of Kp 2146 (as established hereinabove) then treated i.n. or i.p. with rCST9, human recombinant cystatin C (rCSTC) or a combination of rCST9 and rCSTC as depicted in Table 1. Kp infected alone served as controls. […] Therefore, as a comparative control to rCST9, the inventors evaluated the effectiveness of rCSTC against pneumonia using the same doses of 50 and/or 500 pg/mouse.
The potential for rCST9/rCSTC treatment to extend the period before successful antibiotic intervention was initiated was determined. For these evaluations, suboptimal doses of colistin were used to determine the extent of protection afforded by rCSTs as well as to minimize side effects/toxicity caused by this antibiotic (n=10 mice/gp). Doses, timing, and route of colistin were chosen based on efficacy studies of colistin in a mouse model of severe, established MDR pneumonia or a very low dose of colistin then adjusted to suboptimal levels for this study. LD90 NDM-1 Kp-challenged mice were treated with the rCST9/rCSTC 3 d i.p. treatment and then given 2 doses of colistin at 20 mg/kg/day or 1.25 mg/kg/day on day 4 and 5 PI.
Mouse model of pneumonia and CST treatments. Eight-week old female Balb/c mice weighing between 21 and 24 grams (Jackson Laboratories) were housed in an Association for Assessment and Accreditation for Laboratory Animal Care (AAALAC)-approved housing facility and permitted to adjust to their environment for 7 d prior to procedures, receiving free access to food and water throughout the study. All procedures were approved by the University of Texas Medical Branch IACUC and performed humanely with minimal suffering. […] One hour PI, mice were administered an i.n. dose of rCST9/rCSTC (50 pg of each) and then, this group of mice was given an i.p. injection of rCST9/rCSTC (500 pg of each) 3 d PI. […] Additional groups were treated with i.n. rCSTs (50 pg of each) as described above but they were euthanized at 30 min, 1 h and 3 h to collect lungs for the quantification of lipid peroxidase by-product, known as malondialdehyde (MDA), as described below. […]

B1: rCST9: human recombinant cystatin 9, cysteine proteinase inhibitor; purchased from American Research Products, Inc. (protein, UniProt Q5W186 29-159, looked up)
Cystatin-9: WCSEEEMGGNNKIVQDPMFLATVEFALNTFNVQSKEEHAYRLLRVLSSWREDSMDRKWRGKMVFSMNLQLRQTVCRKFEDDIDNCPFQESLELNNVRQGISFPQVHSCGCCMGCGVGTGAADKAIPRDKGK
- increased survival compared to untreated NDM-1 Kp-infected mice: 5-20%
- increased survival of Kp-infected mice (LD90): 10-15%

B2: rCSTC: human recombinant cystatin C (CST3), cysteine proteinase inhibitor; purchased from R&D Systems (protein, UniProt P01034 27-146, looked up)
Cystatin-C: SSPGKPPRLVGGPMDASVEEEGVRRALDFAVGEYNKASNDMYHSRALQVVRARKQIVAGVNYFLDVELGRTTCTKTQPNLDNCPFHDQPHLKRKAFCSFQIYAVPWQGTMTLSKSTCQDA
- increased survival compared to untreated NDM-1 Kp-infected mice: 5-20%
- increased survival of Kp-infected mice (LD90): 10-15%
